Measurements taken from patent US9029295B2, “Pyridazinone compound and herbicide and noxious arthropod controlling agent comprising it” (Sumitomo Chemical Company, Limited, priority 2010, dated 2015).
Some entries share one result that the patent states for a list of compounds.

Legend:
Assay type in all cases: in vivo
Echinochloa crus-galli = experiment: Post-emergence treatment test in dry field (Test Example 1-1); details: treatment amount 1,000 g/10,000 m^2; sprayed onto whole plants at first to second leaf stage; twenty days after treatment; 0 = no effect, 10 = complete death
Galium aparine = experiment: Post-emergence treatment test in dry field (Test Example 1-2); details: treatment amount 1,000 g/10,000 m^2; sprayed onto whole plants at first to second leaf stage; twenty days after treatment; 0 = no effect, 10 = complete death
Lolium multiflorum = experiment: Pre-emergence treatment test in dry field (Test Example 2-1); details: treatment amount 1,000 g/10,000 m^2; sprayed onto soil surface after sowing; twenty days after treatment; 0 = no effect, 10 = complete death

CSc1nn(C)c(=O)c(-c2c(C)cc(C)cc2C)c1O [(I-1-4)]
≥ 9: controlling effect of the compound on Echinochloa crus-galli, visually evaluated, rated in 11 levels from 0 to 10 (Echinochloa crus-galli) | controlling effect of the compound on Galium aparine, visually evaluated, rated in 11 levels from 0 to 10 (Galium aparine) | controlling effect of the compound on Lolium multiflorum, visually evaluated, rated in 11 levels from 0 to 10 (Lolium multiflorum)

CCc1cc(CC)c(-c2c(O)c(SC)nn(C)c2=O)c(CC)c1 [(I-1-6)]
≥ 9: controlling effect of the compound on Echinochloa crus-galli, visually evaluated, rated in 11 levels from 0 to 10 (Echinochloa crus-galli) | controlling effect of the compound on Galium aparine, visually evaluated, rated in 11 levels from 0 to 10 (Galium aparine) | controlling effect of the compound on Lolium multiflorum, visually evaluated, rated in 11 levels from 0 to 10 (Lolium multiflorum)

CCc1cc(CC)c(-c2c(O)c([S+](C)[O-])nn(C)c2=O)c(CC)c1 (stereo not drawn) [(I-2-2)]
≥ 9: controlling effect of the compound on Echinochloa crus-galli, visually evaluated, rated in 11 levels from 0 to 10 (Echinochloa crus-galli) | controlling effect of the compound on Galium aparine, visually evaluated, rated in 11 levels from 0 to 10 (Galium aparine) | controlling effect of the compound on Lolium multiflorum, visually evaluated, rated in 11 levels from 0 to 10 (Lolium multiflorum)

CCc1cc(CC)c(-c2c(O)c(OC)nn(C)c2=O)c(CC)c1 [(I-4-2)]
≥ 9: controlling effect of the compound on Echinochloa crus-galli, visually evaluated, rated in 11 levels from 0 to 10 (Echinochloa crus-galli) | controlling effect of the compound on Galium aparine, visually evaluated, rated in 11 levels from 0 to 10 (Galium aparine) | controlling effect of the compound on Lolium multiflorum, visually evaluated, rated in 11 levels from 0 to 10 (Lolium multiflorum)

CCc1cc(C)cc(C)c1-c1c(O)c(OC)nn(C)c1=O [(I-4-5)]
≥ 9: controlling effect of the compound on Echinochloa crus-galli, visually evaluated, rated in 11 levels from 0 to 10 (Echinochloa crus-galli) | controlling effect of the compound on Galium aparine, visually evaluated, rated in 11 levels from 0 to 10 (Galium aparine) | controlling effect of the compound on Lolium multiflorum, visually evaluated, rated in 11 levels from 0 to 10 (Lolium multiflorum)

CCC(=O)Oc1c(OC)nn(C)c(=O)c1-c1c(CC)cc(C)cc1CC [(I-5-2)]
≥ 9: controlling effect of the compound on Echinochloa crus-galli, visually evaluated, rated in 11 levels from 0 to 10 (Echinochloa crus-galli) | controlling effect of the compound on Galium aparine, visually evaluated, rated in 11 levels from 0 to 10 (Galium aparine) | controlling effect of the compound on Lolium multiflorum, visually evaluated, rated in 11 levels from 0 to 10 (Lolium multiflorum)

CCc1cc(C)cc(CC)c1-c1c(OC(=O)C(C)(C)C)c(OC)nn(C)c1=O [(I-5-3)]
≥ 9: controlling effect of the compound on Echinochloa crus-galli, visually evaluated, rated in 11 levels from 0 to 10 (Echinochloa crus-galli) | controlling effect of the compound on Galium aparine, visually evaluated, rated in 11 levels from 0 to 10 (Galium aparine) | controlling effect of the compound on Lolium multiflorum, visually evaluated, rated in 11 levels from 0 to 10 (Lolium multiflorum)

CCc1cc(C)cc(CC)c1-c1c(OC(=O)OC)c(OC)nn(C)c1=O [(I-5-4)]
≥ 9: controlling effect of the compound on Echinochloa crus-galli, visually evaluated, rated in 11 levels from 0 to 10 (Echinochloa crus-galli) | controlling effect of the compound on Galium aparine, visually evaluated, rated in 11 levels from 0 to 10 (Galium aparine) | controlling effect of the compound on Lolium multiflorum, visually evaluated, rated in 11 levels from 0 to 10 (Lolium multiflorum)

C=CCOC(=O)Oc1c(OC)nn(C)c(=O)c1-c1c(CC)cc(C)cc1CC [(I-5-6)]
≥ 9: controlling effect of the compound on Echinochloa crus-galli, visually evaluated, rated in 11 levels from 0 to 10 (Echinochloa crus-galli) | controlling effect of the compound on Galium aparine, visually evaluated, rated in 11 levels from 0 to 10 (Galium aparine) | controlling effect of the compound on Lolium multiflorum, visually evaluated, rated in 11 levels from 0 to 10 (Lolium multiflorum)

CCc1cc(C)cc(CC)c1-c1c(OC(=O)Oc2ccccc2)c(OC)nn(C)c1=O [(I-5-7)]
≥ 9: controlling effect of the compound on Echinochloa crus-galli, visually evaluated, rated in 11 levels from 0 to 10 (Echinochloa crus-galli) | controlling effect of the compound on Galium aparine, visually evaluated, rated in 11 levels from 0 to 10 (Galium aparine) | controlling effect of the compound on Lolium multiflorum, visually evaluated, rated in 11 levels from 0 to 10 (Lolium multiflorum)

COc1nn(C)c(=O)c(-c2c(C)cc(C)cc2Br)c1O [(I-13-2)]
≥ 9: controlling effect of the compound on Echinochloa crus-galli, visually evaluated, rated in 11 levels from 0 to 10 (Echinochloa crus-galli) | controlling effect of the compound on Galium aparine, visually evaluated, rated in 11 levels from 0 to 10 (Galium aparine) | controlling effect of the compound on Lolium multiflorum, visually evaluated, rated in 11 levels from 0 to 10 (Lolium multiflorum)

COc1nn(C)c(=O)c(-c2c(C)cc(C)cc2C)c1O [(I-13-4)]
≥ 9: controlling effect of the compound on Echinochloa crus-galli, visually evaluated, rated in 11 levels from 0 to 10 (Echinochloa crus-galli) | controlling effect of the compound on Galium aparine, visually evaluated, rated in 11 levels from 0 to 10 (Galium aparine) | controlling effect of the compound on Lolium multiflorum, visually evaluated, rated in 11 levels from 0 to 10 (Lolium multiflorum)

COc1nn(C)c(=O)c(-c2ccc(Cl)cc2C(F)(F)F)c1O [(I-13-5)]
≥ 9: controlling effect of the compound on Echinochloa crus-galli, visually evaluated, rated in 11 levels from 0 to 10 (Echinochloa crus-galli) | controlling effect of the compound on Galium aparine, visually evaluated, rated in 11 levels from 0 to 10 (Galium aparine) | controlling effect of the compound on Lolium multiflorum, visually evaluated, rated in 11 levels from 0 to 10 (Lolium multiflorum)

Cc1cc(C)c(-c2c(O)c(N(C)C)nn(C)c2=O)c(C)c1 [Compound (I-1-1)]
≥ 9: controlling effect of the compound on Echinochloa crus-galli, visually evaluated, rated in 11 levels from 0 to 10 (Echinochloa crus-galli) | controlling effect of the compound on Galium aparine, visually evaluated, rated in 11 levels from 0 to 10 (Galium aparine) | controlling effect of the compound on Lolium multiflorum, visually evaluated, rated in 11 levels from 0 to 10 (Lolium multiflorum)

CCc1cc(C)cc(CC)c1-c1c(O)c(SC)nn(C)c1=O [Compound (I-1-5)]
≥ 9: controlling effect of the compound on Echinochloa crus-galli, visually evaluated, rated in 11 levels from 0 to 10 (Echinochloa crus-galli) | controlling effect of the compound on Galium aparine, visually evaluated, rated in 11 levels from 0 to 10 (Galium aparine) | controlling effect of the compound on Lolium multiflorum, visually evaluated, rated in 11 levels from 0 to 10 (Lolium multiflorum)

CCc1cc(C)cc(C)c1-c1c(O)c(SC)nn(C)c1=O [Compound (I-1-7)]
≥ 9: controlling effect of the compound on Echinochloa crus-galli, visually evaluated, rated in 11 levels from 0 to 10 (Echinochloa crus-galli) | controlling effect of the compound on Galium aparine, visually evaluated, rated in 11 levels from 0 to 10 (Galium aparine) | controlling effect of the compound on Lolium multiflorum, visually evaluated, rated in 11 levels from 0 to 10 (Lolium multiflorum)

CCc1cc(C)cc(CC)c1-c1c(O)c([S+](C)[O-])nn(C)c1=O (stereo not drawn) [Compound (I-2-1), 4-(2,6-diethyl-4-methylphenyl)-5-hydroxy-2-methyl-6-methylsulfinyl-3(2H)-pyridazinone]
≥ 9: controlling effect of the compound on Echinochloa crus-galli, visually evaluated, rated in 11 levels from 0 to 10 (Echinochloa crus-galli) | controlling effect of the compound on Galium aparine, visually evaluated, rated in 11 levels from 0 to 10 (Galium aparine) | controlling effect of the compound on Lolium multiflorum, visually evaluated, rated in 11 levels from 0 to 10 (Lolium multiflorum)

CCc1cc(C)cc(C)c1-c1c(O)c([S+](C)[O-])nn(C)c1=O (stereo not drawn) [Compound (I-2-3)]
≥ 9: controlling effect of the compound on Echinochloa crus-galli, visually evaluated, rated in 11 levels from 0 to 10 (Echinochloa crus-galli) | controlling effect of the compound on Galium aparine, visually evaluated, rated in 11 levels from 0 to 10 (Galium aparine) | controlling effect of the compound on Lolium multiflorum, visually evaluated, rated in 11 levels from 0 to 10 (Lolium multiflorum)

CCc1cc(C)cc(CC)c1-c1c(O)c(OC)nn(C)c1=O [Compound (I-4-1), 4-(2,6-diethyl-4-methylphenyl)-5-hydroxy-6-methoxy-2-methyl-3(2H)-pyridazinone]
≥ 9: controlling effect of the compound on Echinochloa crus-galli, visually evaluated, rated in 11 levels from 0 to 10 (Echinochloa crus-galli) | controlling effect of the compound on Galium aparine, visually evaluated, rated in 11 levels from 0 to 10 (Galium aparine) | controlling effect of the compound on Lolium multiflorum, visually evaluated, rated in 11 levels from 0 to 10 (Lolium multiflorum)

CCc1cc(C)cc(CC)c1-c1c(OC(C)=O)c(OC)nn(C)c1=O [Compound (I-5-1)]
≥ 9: controlling effect of the compound on Echinochloa crus-galli, visually evaluated, rated in 11 levels from 0 to 10 (Echinochloa crus-galli) | controlling effect of the compound on Galium aparine, visually evaluated, rated in 11 levels from 0 to 10 (Galium aparine) | controlling effect of the compound on Lolium multiflorum, visually evaluated, rated in 11 levels from 0 to 10 (Lolium multiflorum)

CCOC(=O)Oc1c(OC)nn(C)c(=O)c1-c1c(CC)cc(C)cc1CC [Compound (I-5-5), 4-(2,6-diethyl-4-methylphenyl)-5-ethoxycarbonyloxy-6-methoxy-2-methyl-3(2H)-pyridazinone]
≥ 9: controlling effect of the compound on Echinochloa crus-galli, visually evaluated, rated in 11 levels from 0 to 10 (Echinochloa crus-galli) | controlling effect of the compound on Galium aparine, visually evaluated, rated in 11 levels from 0 to 10 (Galium aparine) | controlling effect of the compound on Lolium multiflorum, visually evaluated, rated in 11 levels from 0 to 10 (Lolium multiflorum)

CCc1cc(C)cc(CC)c1-c1c(OCOC)c(OC)nn(C)c1=O [Compound (I-6-1), 4-(2,6-diethyl-4-methylphenyl)-6-methoxy-5-methoxymethoxy-2-methyl-3(2H)-pyridazinone]
≥ 9: controlling effect of the compound on Echinochloa crus-galli, visually evaluated, rated in 11 levels from 0 to 10 (Echinochloa crus-galli) | controlling effect of the compound on Galium aparine, visually evaluated, rated in 11 levels from 0 to 10 (Galium aparine) | controlling effect of the compound on Lolium multiflorum, visually evaluated, rated in 11 levels from 0 to 10 (Lolium multiflorum)

CCOCOc1c(OC)nn(C)c(=O)c1-c1c(CC)cc(C)cc1CC [Compound (I-6-2)]
≥ 9: controlling effect of the compound on Echinochloa crus-galli, visually evaluated, rated in 11 levels from 0 to 10 (Echinochloa crus-galli) | controlling effect of the compound on Galium aparine, visually evaluated, rated in 11 levels from 0 to 10 (Galium aparine) | controlling effect of the compound on Lolium multiflorum, visually evaluated, rated in 11 levels from 0 to 10 (Lolium multiflorum)

C=Cc1cc(C)cc(C)c1-c1c(O)c(OC)nn(C)c1=O [Compound (I-15), 4-(2-vinyl-4,6-dimethylphenyl)-6-methoxy-5-hydroxy-2-methyl-3(2H)-pyridazinone]
≥ 9: controlling effect of the compound on Echinochloa crus-galli, visually evaluated, rated in 11 levels from 0 to 10 (Echinochloa crus-galli) | controlling effect of the compound on Galium aparine, visually evaluated, rated in 11 levels from 0 to 10 (Galium aparine) | controlling effect of the compound on Lolium multiflorum, visually evaluated, rated in 11 levels from 0 to 10 (Lolium multiflorum)

C#Cc1cc(C)cc(C)c1-c1c(O)c(OC)nn(C)c1=O [Compound (I-16), 4-(2-ethynyl-4,6-dimethylphenyl)-6-methoxy-5-hydroxy-2-methyl-3(2H)-pyridazinone]
≥ 9: controlling effect of the compound on Echinochloa crus-galli, visually evaluated, rated in 11 levels from 0 to 10 (Echinochloa crus-galli) | controlling effect of the compound on Galium aparine, visually evaluated, rated in 11 levels from 0 to 10 (Galium aparine) | controlling effect of the compound on Lolium multiflorum, visually evaluated, rated in 11 levels from 0 to 10 (Lolium multiflorum)

CCc1cc(C)cc(CC)c1-c1c(O)c(Cl)nn(C)c1=O [Compound (I-18), 4-(2,6-diethyl-4-methylphenyl)-6-chloro-5-hydroxy-2-methyl-3(2H)-pyridazinone]
≥ 9: controlling effect of the compound on Echinochloa crus-galli, visually evaluated, rated in 11 levels from 0 to 10 (Echinochloa crus-galli) | controlling effect of the compound on Galium aparine, visually evaluated, rated in 11 levels from 0 to 10 (Galium aparine) | controlling effect of the compound on Lolium multiflorum, visually evaluated, rated in 11 levels from 0 to 10 (Lolium multiflorum)

CCc1cc(C)cc(CC)c1-c1c(O)c(Br)nn(C)c1=O [Compound (I-19), 4-(2,6-diethyl-4-methylphenyl)-6-bromo-5-hydroxy-2-methyl-3(2H)-pyridazinone]
≥ 9: controlling effect of the compound on Echinochloa crus-galli, visually evaluated, rated in 11 levels from 0 to 10 (Echinochloa crus-galli) | controlling effect of the compound on Galium aparine, visually evaluated, rated in 11 levels from 0 to 10 (Galium aparine) | controlling effect of the compound on Lolium multiflorum, visually evaluated, rated in 11 levels from 0 to 10 (Lolium multiflorum)

CCc1cc(C)cc(CC)c1-c1c(O)c(F)nn(C)c1=O [Compound (I-20), 4-(2,6-diethyl-4-methylphenyl)-6-fluoro-5-hydroxy-2-methyl-3(2H)-pyridazinone]
≥ 9: controlling effect of the compound on Echinochloa crus-galli, visually evaluated, rated in 11 levels from 0 to 10 (Echinochloa crus-galli) | controlling effect of the compound on Galium aparine, visually evaluated, rated in 11 levels from 0 to 10 (Galium aparine) | controlling effect of the compound on Lolium multiflorum, visually evaluated, rated in 11 levels from 0 to 10 (Lolium multiflorum)

CCc1cc(CC)c(-c2c(O)c(CO)nn(C)c2=O)c(CC)c1 [Compound (I-24-2), 4-(2,4,6-triethylphenyl)-6-hydroxymethyl-5-hydroxy-2-methyl-3(2H)-pyridazinone]
≥ 9: controlling effect of the compound on Echinochloa crus-galli, visually evaluated, rated in 11 levels from 0 to 10 (Echinochloa crus-galli) | controlling effect of the compound on Galium aparine, visually evaluated, rated in 11 levels from 0 to 10 (Galium aparine) | controlling effect of the compound on Lolium multiflorum, visually evaluated, rated in 11 levels from 0 to 10 (Lolium multiflorum)
